## Primary screen of a compound library

Data taken from ChEMBL document CHEMBL3988442, “University of Dundee, Small-Polar-MMV Screening Library” (2021).

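Assay of Toxoplasma gondii numbers, read through their beta-galactosidase reporter with a colour substrate. Concentration: 50 µM. The record gives no direction; the compounds picked for IC50 retests had high values, so higher reads as fewer parasites. About 18,000 compounds were tested under these conditions; 0.94% (about 170) showed 50% or more at least once.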

Values are the deposited “Percent Effect”, in %.
The controls that fix the scale are not given in the record; negative values are as filed.
Compounds were drawn at random from those tested, without regard to their results.

SMILES | effect
c1ccc(Cn2cnc(C3COCCN3)n2)cc1 (centres undefined) | 1.147
CCOc1cc(-c2nnn(C)n2)ccc1OC | -2.676
O=C(NC1CCN(C2CCOCC2)CC1)c1ccoc1 | -6.392
O=C(NC1CC1)c1ccc(-n2ccnc2)cc1 | 5.72
CNC(=O)CCNS(=O)(=O)c1ccc(C(C)=O)cc1 | -6.332
CCSCC(=O)NC(C)c1cn2ccsc2n1 (centres undefined) | 6.61
O=C(NCC1(O)CCNC1)Nc1ccccc1Cl (centres undefined) | -7.046
CCC(NC(=O)c1ccc(C)c(O)c1)[C@H]1C[C@H](O)C1 (some centres undefined) | 13.79
CCCn1cc(CNC(=O)c2cnc(O)cn2)cn1 | 1.529
NS(=O)(=O)c1ccc(OCC(F)(F)F)nc1 | -10.99
C[C@H](N)C(=O)NCCO | -18.85
Cn1cc(CNS(=O)(=O)Cc2ccccc2)cn1 | -7.941
CN1N=C(C(=O)NCCc2cccs2)CCC1=O | 4.352
Cc1nccn1CCCN(C)CC1COCCO1 (centres undefined) | -12.71
COc1cccc(OC)c1OCCN(C)C | -34.38
O=C(CN1CCCCCCC1)NCc1ncc[nH]1 | -1.81
Cc1ccc(CN)c(=O)[nH]1 | -1.921
Cc1cc(NC(=O)c2cccc(N(C)C)c2)c[nH]c1=O | -7.225
CN(CCNC(=O)Nc1cn[nH]c1)C1CCCCC1 | 4.957
CC(=O)N[C@@H]1CNC[C@H]1CO | -10.85
COC(=O)N1CCC(NC(=O)NCC2CCCO2)CC1 (centres undefined) | -22.64
CN(C)C(=O)N1CCN(CC2CCCCO2)CC1 (centres undefined) | 6.184
O=C(Nc1cncc(Cl)c1Cl)c1ccccn1 | 4.951
Cc1cccc(C)c1CN | 1.167
Cc1nnc(SCCCNC(=O)c2cnccc2C)s1 | 0.6692
C=C(Br)CNC(=O)C1CC(=O)N(CC(C)C)C1 (centres undefined) | -16.03
COC(C)CCC(=O)Nc1cnccn1 (centres undefined) | 7.682
COc1cc(N2CCNCC2)ccc1F | -1.969
C=C(C)Cn1nc(C)c(C)c(C#N)c1=O | 21.46
CC(C)NC(=O)CNC(=O)c1cccc(C(F)(F)F)c1 | -2.443
N#Cc1ccsc1NC(=O)CN1CCn2ccnc2C1 | -4.239
NC(=O)CCC1CCN(Cc2ccc(N)nc2)CC1 | 5.932
N#Cc1ccc(N2CCN(c3ncccn3)CC2)nc1 | -11.71
c1csc(N2CCN(c3ccc4nnnn4n3)CC2)n1 | -2.434
CCNC(C)c1cccnc1 (centres undefined) | -9.479
NC(=O)c1cccnc1NCC1CNCCOC1 (centres undefined) | -31.51
CC(=O)NCC(=O)NC(C)c1nc2cc(C)ccc2[nH]1 (centres undefined) | 21.23
NCc1cccc2c1OCCCO2 | -1.007
Cc1ccc2c(c1)nc(CN)n2C | 1.325
CN1CCN(c2ncnc3ccsc23)CC1 | -1.262
NC1CCCc2ccc(F)cc21 (centres undefined) | 5.063
CNCc1csc(C)n1 | 9.759
Cc1ncc(O)c(N)n1 | 1.919
Cc1ccc(C(C)NC(=O)Nc2ccc(=O)n(C)c2)o1 (centres undefined) | -2.737
COc1ccsc1C(=O)NCCc1nc(N)no1 | 1.318
NC1CCN(Cc2ccccc2)C1=O (centres undefined) | 57.3
CN(C)C(=O)CCCS(=O)(=O)CC(=O)N1CCCCC1 | -6.953
O=C(NCC1CCCO1)c1cc2ccccc2[nH]c1=O (centres undefined) | 3.402
Cc1nc(CNc2ccn(-c3ncccc3Cl)n2)no1 | -13.08
CN(C)Cc1cccc(C(=O)NCC2(C)COC2)c1 | -10.79
COC(=O)c1cc(OC)cs1 | -1.285
COc1ccccc1C(C)N(C)S(C)(=O)=O (centres undefined) | 4.131

Some entries from above, unchanged:

O=C(NC1CC1)c1ccc(-n2ccnc2)cc1 read 5.72%.
C=C(C)Cn1nc(C)c(C)c(C#N)c1=O read 21.46%.
N#Cc1ccc(N2CCN(c3ncccn3)CC2)nc1 read -11.71%.